No constants are given. Whether binding was seen depends on the method and setting. In cells and extracts the contact can be indirect. Some entries that bind do so weakly or less than the wild type.
Molecular target: Mdm2 (murine double minute 2) (mouse (endogenous in E13.5 embryos)) (UniProt P23804)
Assay: co-IP; 1 mg whole E13.5 embryo lysate (wild-type or mray/mray) with 10 ug Mdm2 antibody overnight at 4 °C, protein G Dynabeads 2.5 h, three washes; western blot with Pak1ip1 antibody; in triplicate

By UniProt entry, the sequences of proteins in these tests, tags left out.
UniProt P23804: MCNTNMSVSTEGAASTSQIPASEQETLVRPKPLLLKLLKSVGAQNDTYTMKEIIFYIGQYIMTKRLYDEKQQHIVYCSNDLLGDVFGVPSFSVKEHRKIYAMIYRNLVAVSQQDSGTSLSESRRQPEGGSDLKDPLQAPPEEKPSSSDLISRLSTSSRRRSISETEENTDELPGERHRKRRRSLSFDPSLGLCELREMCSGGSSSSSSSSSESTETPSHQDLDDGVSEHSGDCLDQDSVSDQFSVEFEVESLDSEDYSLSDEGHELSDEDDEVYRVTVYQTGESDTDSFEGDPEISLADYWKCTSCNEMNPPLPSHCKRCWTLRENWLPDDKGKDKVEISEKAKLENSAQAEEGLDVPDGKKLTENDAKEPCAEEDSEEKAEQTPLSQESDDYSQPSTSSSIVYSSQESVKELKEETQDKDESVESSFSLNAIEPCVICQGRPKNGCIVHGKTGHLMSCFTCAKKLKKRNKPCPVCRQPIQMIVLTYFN

| binding | Binder |
| --- | --- |
| binds | Pak1ip1 (Pak1 interacting protein 1), wild-type mouse protein (protein, UniProt Q9DCE5 1-382) MELVAGSYEQVLFGFTVQRGPAKSGHQETWTPVADFTHHSHTASLSVLASNSRYVVSGSKDETIHIYDMKRKVEHGALVHHAGTVTCLKFHGNQHLISGAEDGHICIWDVKRWKCLKTFKAHRGHVTFLSIHPSGKLALSVGTDKTLRTWNLIEGRSAFIKNIKENAHIVEWSPSGGKYIVVVQNKVDVYRLGTASVSGTITNGKRISSVTFLSDSVLAVAGDEEVVRIFDCDSLECLCEFRAHENRVKDMVSFEVPDHHVLVTASNDGFIKMWTLPQDKKVPPSLLCEAKTGARLTCLTVWLDRAANGMASLPPAAEPCPDQPKTIEKESGDTVQEETSEPNSEKSDVSGDSKQPTKGNSPVTAKKRKMATMSEKKRKKKM |
| binds | Pak1ip1 H122Y, protein of the manta-ray (mray) allele (protein, UniProt Q9DCE5 1-382) MELVAGSYEQVLFGFTVQRGPAKSGHQETWTPVADFTHHSHTASLSVLASNSRYVVSGSKDETIHIYDMKRKVEHGALVHHAGTVTCLKFHGNQHLISGAEDGHICIWDVKRWKCLKTFKAYRGHVTFLSIHPSGKLALSVGTDKTLRTWNLIEGRSAFIKNIKENAHIVEWSPSGGKYIVVVQNKVDVYRLGTASVSGTITNGKRISSVTFLSDSVLAVAGDEEVVRIFDCDSLECLCEFRAHENRVKDMVSFEVPDHHVLVTASNDGFIKMWTLPQDKKVPPSLLCEAKTGARLTCLTVWLDRAANGMASLPPAAEPCPDQPKTIEKESGDTVQEETSEPNSEKSDVSGDSKQPTKGNSPVTAKKRKMATMSEKKRKKKM |

Reference: paper PMC3723895
